Source: PMC10499038
Results are given in words; binding and its absence hold for the method and conditions named. Binding seen in cells or lysates may run through a third protein. Some binding calls cover weakened binding; strength is not graded here. For part of these data: Where a sequence is shown, tags or fusion partners need not be part of it.

Columns and labels:
Assay in all cases: co-IP
Cerulean-vIL-6 (HHV-8) = molecular target: T1, Cerulean-vIL-6 (HHV-8)
T1 sequence: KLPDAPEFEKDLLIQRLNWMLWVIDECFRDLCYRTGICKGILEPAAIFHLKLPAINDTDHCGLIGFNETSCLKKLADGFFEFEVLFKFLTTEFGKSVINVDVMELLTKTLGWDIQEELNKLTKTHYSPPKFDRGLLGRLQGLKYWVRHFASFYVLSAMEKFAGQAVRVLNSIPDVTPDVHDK

GFP-CNX (human) = molecular target: T2, GFP-CNX (human) (UniProt P27824)
T2 sequence: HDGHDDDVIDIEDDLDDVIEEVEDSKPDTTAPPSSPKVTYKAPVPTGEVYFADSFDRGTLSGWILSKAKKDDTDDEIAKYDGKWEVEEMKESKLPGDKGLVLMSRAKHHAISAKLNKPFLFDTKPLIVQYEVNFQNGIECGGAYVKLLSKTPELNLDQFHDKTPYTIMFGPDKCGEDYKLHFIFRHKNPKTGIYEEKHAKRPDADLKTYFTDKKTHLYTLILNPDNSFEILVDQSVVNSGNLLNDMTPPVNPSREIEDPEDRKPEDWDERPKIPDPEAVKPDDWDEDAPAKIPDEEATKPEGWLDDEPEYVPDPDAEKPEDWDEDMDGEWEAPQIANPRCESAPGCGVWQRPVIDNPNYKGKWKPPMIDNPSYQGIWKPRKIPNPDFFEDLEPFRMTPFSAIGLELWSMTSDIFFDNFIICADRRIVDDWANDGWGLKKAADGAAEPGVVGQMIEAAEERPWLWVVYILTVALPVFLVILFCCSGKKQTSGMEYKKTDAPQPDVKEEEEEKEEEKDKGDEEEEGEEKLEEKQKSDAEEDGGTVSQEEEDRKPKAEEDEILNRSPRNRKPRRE

CD3δ-CFP = molecular target: T3, CD3δ-CFP (UniProt P04235)
T3 sequence: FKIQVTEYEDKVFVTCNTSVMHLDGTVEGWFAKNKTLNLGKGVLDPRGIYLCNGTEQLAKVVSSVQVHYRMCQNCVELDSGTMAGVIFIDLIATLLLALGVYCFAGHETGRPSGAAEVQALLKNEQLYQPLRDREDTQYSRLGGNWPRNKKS

Measured: binding

B1: calnexin (CNX), endogenous in N2a cells (protein, UniProt P35564 21-591)
chain: HDGHDDDAIDIEDDLDDVIEEVEDSKSKSDASTPPSPKVTYKAPVPTGEVYFADSFDRGSLSGWILSKAKKDDTDDEIAKYDGKWEVDEMKETKLPGDKGLVLMSRAKHHAISAKLNKPFLFDTKPLIVQYEVNFQNGIECGGAYVKLLSKTAELSLDQFHDKTPYTIMFGPDKCGEDYKLHFIFRHKNPKTGVYEEKHAKRPDADLKTYFTDKKTHLYTLILNPDNSFEILVDQSVVNSGNLLNDMTPPVNPSREIEDPEDRKPEDWDERPKIADPDAVKPDDWDEDAPSKIPDEEATKPEGWLDDEPEYIPDPDAEKPEDWDEDMDGEWEAPQIANPKCESAPGCGVWQRPMIDNPNYKGKWKPPMIDNPNYQGIWKPRKIPNPDFFEDLEPFKMTPFSAIGLELWSMTSDIFFDNFIISGDRRVVDDWANDGWGLKKAADGAAEPGVVLQMLEAAEERPWLWVVYILTVALPVFLVILFCCSGKKQSNAMEYKKTDAPQPDVKDEEGKEEEKNKRDEEEEEEKLEEKQKSDAEEDGVTGSQDEEDSKPKAEEDEILNRSPRNRKPRRE
binds: all assays above
